According to PubChem BioAssay (NCI):
Shown are results outside the selection of hits, which stands elsewhere. Activity calls are given as the source filed them. Rule as the data show it: active = growth inhibition above about 70%; inactive = the rest.

How the values were obtained:
[1] = NCI Yeast Anticancer Drug Screen. Data for the rad52 strain (AID 147);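 also: 0% = growth of vehicle-treated control cultures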; conditions: S. cerevisiae rad52 mutant growth inhibition, active compounds read high
In short: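 Here a repair-compromised yeast strain receives each compound; its growth is then quantified and normalised to vehicle-only controls.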

[2] = NCI Yeast Anticancer Drug Screen. Data for the wt1 strain (AID 149);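 also: 0% = growth of vehicle-treated wt1 cultures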; conditions: S. cerevisiae wt1 strain (SPY 50644) growth inhibition, active compounds read high
In short: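 Using yeast strain wt1, compound-induced growth inhibition was determined against vehicle-treated cultures.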

[3] = NCI Yeast Anticancer Drug Screen. Data for the rad50EPP+ strain (AID 151);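 also: 0% = growth of vehicle-treated control cultures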; conditions: S. cerevisiae rad50 mutant strain, active compounds read high
In short: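 Read-out is yeast growth inhibition relative to vehicle; cells used were the rad50EPP+ strain.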

[4] = NCI Yeast Anticancer Drug Screen. Data for the mgt1 strain (AID 153); conditions: S. cerevisiae mgt1 mutant growth inhibition, active compounds read high
In short: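 Measured: inhibition of mgt1 yeast growth by compound, normalized to vehicle-treated cultures.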

[5] = NCI Yeast Anticancer Drug Screen. Data for the rad14 strain (AID 159);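 also: 0% = growth of vehicle-treated control cultures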; conditions: S. cerevisiae rad14 strain growth inhibition, active compounds read high
In short: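 Screen for anticancer potential: a yeast strain altered in DNA damage repair is grown with compound, and reduced growth is quantified against vehicle controls.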

[6] = NCI Yeast Anticancer Drug Screen. Data for the CLN2oe strain (AID 163);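 also: 0% = growth of vehicle-only control cultures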; conditions: S. cerevisiae CLN2oe strain, active compounds read high
In short: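 Whole-cell yeast growth assay. A strain engineered for altered cell-cycle control received compound, and inhibition relative to vehicle-treated cultures was recorded.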

[7] = NCI Yeast Anticancer Drug Screen. Data for the wt2 strain (AID 169);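 also: 0% = growth of vehicle-treated yeast cultures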; conditions: S. cerevisiae wt2 strain growth inhibition, active compounds read high
In short: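 Treated yeast vs. vehicle-treated yeast: growth inhibition determined.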

[8] = NCI Yeast Anticancer Drug Screen. Data for the mlh1 strain (AID 171);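 also: 0% = growth of vehicle-treated control cultures of the same strain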; conditions: S. cerevisiae mlh1 strain growth inhibition, active compounds read high
In short: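 A yeast strain with a defined genetic lesion serves as the test organism. Cultures receive compound or vehicle, and growth is measured.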

[9] = NCI Yeast Anticancer Drug Screen. Data for the sgs1 strain (AID 173);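 also: 0% = growth of vehicle-only control cultures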; conditions: S. cerevisiae sgs1 mutant, active compounds read high
In short: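 A genetically defined yeast mutant is incubated with the test compound, and its growth is compared to that of the same strain given vehicle.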

[10] = NCI Yeast Anticancer Drug Screen. Data for the rad18 strain (AID 177); conditions: S. cerevisiae rad18 mutant growth inhibition, active compounds read high
In short: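 Measured value is growth inhibition of a yeast strain bearing a DNA repair alteration, referenced to vehicle-treated cells.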

Measured: growth inhibition

COc1ccc(NC(=O)c2ccccc2Cl)cc1
inactive: [1]; at 1.2 µM -11% | [1]; at 3.7 µM 1% | [1]; at 11.0 µM 3% | [1]; at 33.0 µM 4% | [1]; at 100.0 µM 2% | [2]; at 1.2 µM -3% | [2]; at 3.7 µM -2% | [2]; at 11.0 µM -2% | [2]; at 33.0 µM -3% | [2]; at 100.0 µM -3% | [3]; at 1.2 µM -1% | [3]; at 3.7 µM 5% | [3]; at 11.0 µM 9% | [3]; at 33.0 µM 15% | [3]; at 100.0 µM 23% | [4]; at 1.2 µM -4% | [4]; at 3.7 µM -3% | [4]; at 11.0 µM -2% | [4]; at 33.0 µM -5% | [4]; at 100.0 µM 32% | [5]; at 1.2 µM -3% | [5]; at 3.7 µM -4% | [5]; at 11.0 µM -1% | [5]; at 33.0 µM -1% | [5]; at 100.0 µM -1% | [6]; at 1.2 µM -7% | [6]; at 3.7 µM 0% | [6]; at 11.0 µM -5% | [6]; at 33.0 µM -5% | [6]; at 100.0 µM -4% | [7]; at 1.2 µM -1% | [7]; at 3.7 µM -3% | [7]; at 11.0 µM -2% | [7]; at 33.0 µM -5% | [7]; at 100.0 µM -6% | [8]; at 1.2 µM 0% | [8]; at 3.7 µM 0% | [8]; at 11.0 µM 1% | [8]; at 33.0 µM 0% | [8]; at 100.0 µM 1% | [9]; at 1.2 µM -2% | [9]; at 3.7 µM -1% | [9]; at 11.0 µM -2% | [9]; at 33.0 µM 1% | [9]; at 100.0 µM 0% | [10]; at 1.2 µM -2% | [10]; at 3.7 µM -2% | [10]; at 11.0 µM -4% | [10]; at 33.0 µM -1% | [10]; at 100.0 µM 2%

O=[N+]([O-])c1ccc(Nc2ccc(O)cc2)c([N+](=O)[O-])c1
inactive: [1]; at 1.2 µM -4% | [1]; at 3.7 µM -3% | [1]; at 11.0 µM -1% | [1]; at 33.0 µM -54% | [1]; at 100.0 µM 1% | [2]; at 1.2 µM -3% | [2]; at 3.7 µM -3% | [2]; at 11.0 µM -5% | [2]; at 33.0 µM -8% | [2]; at 100.0 µM -9% | [3]; at 1.2 µM -2% | [3]; at 3.7 µM 4% | [3]; at 11.0 µM 15% | [3]; at 33.0 µM 14% | [3]; at 100.0 µM 12% | [4]; at 1.2 µM -3% | [4]; at 3.7 µM -3% | [4]; at 11.0 µM -3% | [4]; at 33.0 µM -6% | [4]; at 100.0 µM -2% | [5]; at 1.2 µM -5% | [5]; at 3.7 µM -5% | [5]; at 11.0 µM -2% | [5]; at 33.0 µM 3% | [5]; at 100.0 µM 1% | [6]; at 1.2 µM -6% | [6]; at 3.7 µM -11% | [6]; at 11.0 µM -21% | [6]; at 33.0 µM -18% | [6]; at 100.0 µM -15% | [7]; at 1.2 µM -2% | [7]; at 3.7 µM -5% | [7]; at 11.0 µM -6% | [7]; at 33.0 µM -6% | [7]; at 100.0 µM -6% | [9]; at 1.2 µM 0% | [9]; at 3.7 µM 1% | [9]; at 11.0 µM 5% | [9]; at 33.0 µM 9% | [9]; at 100.0 µM 2% | [10]; at 1.2 µM -1% | [10]; at 3.7 µM 2% | [10]; at 11.0 µM 2% | [10]; at 33.0 µM 7% | [10]; at 100.0 µM 12%

Cc1ccc(N2C(=O)/C(=C3\Sc4c(nc(C)[nH]c4=O)N3c3ccccc3)SC2=S)cc1
inactive: [1]; at 1.2 µM 1% | [1]; at 3.7 µM -1% | [1]; at 11.0 µM -7% | [1]; at 33.0 µM -7% | [1]; at 100.0 µM -9% | [3]; at 1.2 µM -1% | [3]; at 3.7 µM 0% | [3]; at 11.0 µM -1% | [3]; at 33.0 µM -3% | [3]; at 100.0 µM -7% | [5]; at 1.2 µM -1% | [5]; at 3.7 µM 4% | [5]; at 11.0 µM 0% | [5]; at 33.0 µM -2% | [5]; at 100.0 µM -2% | [6]; at 1.2 µM -2% | [6]; at 3.7 µM 2% | [6]; at 11.0 µM 5% | [6]; at 33.0 µM 3% | [6]; at 100.0 µM 2% | [7]; at 1.2 µM 0% | [7]; at 3.7 µM 1% | [7]; at 11.0 µM 1% | [7]; at 33.0 µM 0% | [7]; at 100.0 µM 0% | [8]; at 1.2 µM 0% | [8]; at 3.7 µM -4% | [8]; at 11.0 µM -9% | [8]; at 33.0 µM -7% | [8]; at 100.0 µM 8% | [9]; at 1.2 µM -2% | [9]; at 3.7 µM -3% | [9]; at 11.0 µM -4% | [9]; at 33.0 µM -6% | [9]; at 100.0 µM -9% | [10]; at 1.2 µM -2% | [10]; at 3.7 µM -2% | [10]; at 11.0 µM -8% | [10]; at 33.0 µM -19% | [10]; at 100.0 µM -33%

CCCCC/C(C)=N/Nc1ccc([N+](=O)[O-])cc1[N+](=O)[O-]
inactive: [1]; at 1.2 µM -1% | [1]; at 3.7 µM 1% | [1]; at 11.0 µM 1% | [1]; at 33.0 µM 1% | [1]; at 100.0 µM 1% | [3]; at 1.2 µM 1% | [3]; at 3.7 µM 3% | [3]; at 11.0 µM 3% | [3]; at 33.0 µM 6% | [3]; at 100.0 µM 12% | [4]; at 1.2 µM -5% | [4]; at 3.7 µM -1% | [4]; at 11.0 µM -1% | [4]; at 33.0 µM 1% | [4]; at 100.0 µM 0% | [5]; at 1.2 µM 4% | [5]; at 3.7 µM 2% | [5]; at 11.0 µM 2% | [5]; at 33.0 µM 6% | [5]; at 100.0 µM 3% | [6]; at 1.2 µM -2% | [6]; at 3.7 µM -1% | [6]; at 11.0 µM -2% | [6]; at 33.0 µM 2% | [6]; at 100.0 µM 2% | [7]; at 1.2 µM -10% | [7]; at 3.7 µM -10% | [7]; at 11.0 µM -6% | [7]; at 33.0 µM -10% | [7]; at 100.0 µM -8% | [8]; at 1.2 µM -2% | [8]; at 3.7 µM -1% | [8]; at 11.0 µM -1% | [8]; at 33.0 µM 1% | [8]; at 100.0 µM 2% | [9]; at 1.2 µM -12% | [9]; at 3.7 µM 7% | [9]; at 11.0 µM 4% | [9]; at 33.0 µM 5% | [9]; at 100.0 µM 5% | [10]; at 1.2 µM -2% | [10]; at 3.7 µM 0% | [10]; at 11.0 µM 0% | [10]; at 33.0 µM 2% | [10]; at 100.0 µM 7%
